PubChem BioAssay AID504804, Drosophila RNAi Screening Center, 2011

Purpose: 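Knock-downs shielding fly cells from apoptosis caused by DNA damage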 (primary screen)
Cells: Drosophila Kc cells
Reagents: long dsRNA against Drosophila genes, 0.5 µg dsRNA per well
Time to read-out: 96 h (48 h knock-down, then 48 h drug)
Conditions: doxorubicin 5 µg/ml for 48 h, added 48 h after dsRNA
Measured: 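Viability measured as cellular ATP by luminescence after 48 h knock-down then 48 h doxorubicin at 5 µg/ml; unnormalised plate counts for each replicate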
Direction: raw ATP luminescence: higher = more viable cells, protection from doxorubicin
Hit rule: 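z-score of 2 or more over plate mean in both duplicates, retained only when retests and separate dsRNAs confirm the protection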
The deposit covers about 19,000 reagents; below is a random part of those with a known target gene and a result. Of all reagents, 47 (0.25%) are marked active. 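Signals are raw, not normalised; exact z-scores behind calls not deposited; actives needed confirmation, so some wells reaching 2 SD are inactive.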 A number with no mark means an inactive call. A plus sign joins genes that one reagent is predicted to hit.

| target | dsRNA | raw ATP luminescence, replicate 1 | raw ATP luminescence, replicate 2 |
| --- | --- | --- | --- |
| Acp29AB (Accessory gland protein 29AB) | DRSC01857 | 28053 | 57100 |
| RhoGAP92B (Rho GTPase activating protein at 92B) | DRSC14507 | 60860 | 81990 |
| RhoGAP92B (Rho GTPase activating protein at 92B) | DRSC15637 | 67230 | 65700 |
| CG3546 | DRSC18308 | 41310 | 54300 |
| CG5292 | DRSC15763 | 78500 | 73650 |
| CG31807 | DRSC01550 | 3.36e5 | 2.67e5 |
| Coop (Corepressor of Pangolin) | DRSC06604 | 85467 | 44293 |
| TTLL6B (Tubulin tyrosine ligase-like 6B) | DRSC15932 | 57630 | 44620 |
| csw (corkscrew) | DRSC18756 | 33050 | 39390 |
| Rdl (Resistant to dieldrin) | DRSC11264 | 43830 | 36540 |
| CG14277 | DRSC02380 | 54820 | 85447 |
| CG14609 | DRSC12553 | 69160 | 75057 |
| Or83c (Odorant receptor 83c) | DRSC12359 | 80430 | 79030 |
| Sox100B | DRSC15090 | 36270 | 31230 |
| Sox100B | DRSC16866 | 44600 | 29020 |
| Ac3 (Adenylate cyclase 3) | DRSC03692 | 67973 | 55497 |
| CG12985 | DRSC19505 | 4.15e5 | 3.44e5 |
| CG31259 | DRSC14366 | 56597 | 57100 |
| Rab6 | DRSC03404 | 82947 | 53233 |
| Polr2M (RNA polymerase II subunit M) | DRSC15513 | 46030 | 54000 |
| CG13407 | DRSC14583 | 66520 | 73490 |
| mRpL47 (mitochondrial ribosomal protein L47) | DRSC16827 | 57123 | 53793 |
| Nipped-A | DRSC04882 | 73877 | 64323 |
| Nipped-A | DRSC04883 | 31537 | 51317 |
| Nipped-A | DRSC04884 | 63127 | 53057 |
| Kua | DRSC02100 | 56997 | 76933 |
| CG11590 | DRSC19411 | 3.80e5 | 3.38e5 |
| tfc (triforce) | DRSC07953 | 1.54e5 | 1.61e5 |
| tfc (triforce) | DRSC07954 | 1.37e5 | 1.52e5 |
| tfc (triforce) | DRSC08626 | 60223 | 68063 |
| CG34244 | DRSC09304 | 76707 | 78313 |
| scyl (scylla) | DRSC11392 | 87783 | 83530 |
| CG6678 | DRSC16092 | 65047 | 44520 |
| CG14285 | DRSC14766 | 51790 | 43150 |
| dmrt11E (doublesex-Mab related 11E) | DRSC19715 | 3.71e5 | 3.27e5 |
| yellow-b | DRSC03639 | 98570 | 66837 |
| Obp46a (Odorant-binding protein 46a) | DRSC06220 | 54453 | 80550 |
| Manf (Mesencephalic astrocyte-derived neurotrophic factor) | DRSC14091 | 40930 | 36740 |
| CG13457 | DRSC10004 | 37057 | 36100 |
| AIMP3 (aaRS-interacting multifunctional protein 3) | DRSC04500 | 46183 | 53347 |
| CG11109 | DRSC11633 | 36810 | 23977 |
| ovo | DRSC18812 | 53860 | 61630 |
| CG17770 + Acam | DRSC14110 | 63950 | 61660 |
| CG17770 + Acam | DRSC15264 | 69440 | 59930 |
| CG16727 | DRSC15139 | 59060 | 90580 |
| Cyp4d8 (Cytochrome P450 4d8) | DRSC11131 | 45003 | 38393 |
| CG11889 + CG11891 | DRSC14426 | 58360 | 53570 |
| CG11889 + CG11891 | DRSC14427 | 48590 | 47830 |
| VhaAC45RP (VhaAC45-related protein) | DRSC15423 | 1.48e5 | 1.66e5 |
| gcl (germ cell-less) | DRSC07623 | 66377 | 64077 |
| CG31693 | DRSC03674 | 72360 | 61457 |
| Psn (Presenilin) | DRSC11743 | 78177 | 67403 |
| CG42650 | DRSC12462 | 72827 | 59463 |
| CG3065 | DRSC04333 | 56830 | 51657 |
| CG3999 | DRSC15534 | 57773 | 52347 |
| CG31142 | DRSC13647 | 1.74e5 | 2.10e5 |
| Cnx14D (Calnexin 14D) | DRSC20214 | 2.60e5 | 2.22e5 |
| mbm (mushroom body miniature) | DRSC00319 | 89840 | 84293 |
| dnk (deoxyribonucleoside kinase) | DRSC16933 | 30330 | 31120 |
| Ste:CG33238 + Ste:CG33241 + Ste:CG33236 + 11 more | DRSC19004 | 2.62e5 | 2.46e5 |
| Ste:CG33238 + Ste:CG33241 + Ste:CG33236 + 11 more | DRSC21260 | 2.90e5 | 2.98e5 |
| Ndfip (Nedd4 family interacting protein) | DRSC11201 | 28197 | 22000 |
| Fam92 | DRSC02952 | 84840 | 60317 |
| CG2528 | DRSC03724 | 51140 | 47130 |
| kug (kugelei) | DRSC10911 | 27073 | 23300 |
| Cdk1 (Cyclin-dependent kinase 1) | DRSC03504 | 1.06e5 | 80137 |
| Pdcd4 (Programmed cell death 4) | DRSC19360 | 1.84e5 | 1.90e5 |
| CG10470 | DRSC02061 | 69367 | 67237 |
| Top2 (Topoisomerase 2) | DRSC03459 | 50990 | 49423 |
| CG9902 | DRSC20212 | 2.93e5 | 2.30e5 |
| CG4238 | DRSC00090 | 2.83e5 | 2.80e5 |
| Nepl14 (Neprilysin-like 14) | DRSC15631 | 87290 | 56800 |
| Spn42Dc (Serpin 42Dc) | DRSC05010 | 23880 | 1.10e5 |
| Ntf-2r (Nuclear transport factor-2-related) | DRSC02019 | 41087 | 51850 |
| Isha (Insulator su(Hw) mRNA adaptor) | DRSC04456 | 69193 | 51767 |
| NetA (Netrin-A) | DRSC20261 | 3.43e5 | 3.33e5 |
| COX6CL (Cytochrome c oxidase subunit 6C-like) | DRSC00895 | 2.66e5 | 2.77e5 |
| roq (roquin) | DRSC10227 | 28803 | 23210 |
| Cpr65Az (Cuticular protein 65Az) | DRSC09882 | 71507 | 84560 |
| Hpf1 (Histone PARylation factor 1) | DRSC12202 | 88233 | 35970 |
| mon2 (monensin sensitivity 2) | DRSC03112 | 46190 | 82033 |
| TfIIFalpha (Transcription factor IIFalpha) | DRSC12608 | 28310 | 25677 |
| eIF2Bgamma (eukaryotic translation initiation factor 2B subunit gamma) | DRSC07100 | 74780 | 63277 |
| GCC88 (GRIP and coiled-coil domain containing 88 kDa) | DRSC14264 | 58793 | 57167 |
| Sply (Sphingosine-1-phosphate lyase) | DRSC07299 | 2.26e5 | 2.61e5 |
| CNT1 (Concentrative nucleoside transporter 1) | DRSC06082 | 52113 | 69870 |
| CG15919 | DRSC06594 | 1.35e5 | 1.84e5 |
| DCTN1-p150 (Dynactin 1, p150 subunit) | DRSC11175 | 31073 | 24580 |
| Pgcl (Pepsinogen C-like) | DRSC18815 | 47240 | 55680 |
| CG10887 | DRSC14277 | 25160 | 30910 |
| CG9467 | DRSC16498 | 65777 | 32003 |
| Nadk2 (NAD kinase 2, mitochondrial) | DRSC07072 | 80063 | 60977 |
| CG32547 | DRSC19263 | 2.80e5 | 2.59e5 |
| CG32547 | DRSC19265 | 2.62e5 | 2.56e5 |
| CG32547 | DRSC19474 | 3.18e5 | 3.69e5 |
| CG32547 | DRSC19626 | 4.35e5 | 3.68e5 |
| stil (stand still) | DRSC07699 | 53977 | 47133 |
| Spn42Dd (Serpin 42Dd) | DRSC05024 | 41490 | 1.46e5 |
| side-III (sidestep III) | DRSC12155 | 53270 | 64057 |
| side-III (sidestep III) | DRSC12263 | 45117 | 38347 |
| side-III (sidestep III) | DRSC12264 | 48597 | 64363 |
| Ufd4 (Ubiquitin fusion-degradation 4-like) | DRSC02871 | 39987 | 71757 |
| Sf3b2 (Splicing factor 3b subunit 2) | DRSC00619 | 31937 | 25060 |
| drl (derailed) | DRSC03523 | 94267 | 64490 |
| Or92a (Odorant receptor 92a) | DRSC16771 | 47170 | 60460 |
| Cyp6v1 (Cytochrome P450 6v1) | DRSC20565 | 3.73e5 | 3.42e5 |
| beat-IIb (beaten path IIb) | DRSC13219 | 1.14e5 | 1.31e5 |
| beat-IIb (beaten path IIb) | DRSC14816 | 78630 | 74000 |
| beat-IIb (beaten path IIb) | DRSC15546 | 77090 | 1.00e5 |

An excerpt from above, reduced to “raw ATP luminescence, replicate 2”:
CG15919 [DRSC06594]: 1.84e5
DCTN1-p150 (Dynactin 1, p150 subunit) [DRSC11175]: 24580
Pgcl (Pepsinogen C-like) [DRSC18815]: 55680
CG10887 [DRSC14277]: 30910
CG9467 [DRSC16498]: 32003
Nadk2 (NAD kinase 2, mitochondrial) [DRSC07072]: 60977
CG32547 [DRSC19263]: 2.59e5
CG32547 [DRSC19265]: 2.56e5
CG32547 [DRSC19474]: 3.69e5
CG32547 [DRSC19626]: 3.68e5
stil (stand still) [DRSC07699]: 47133
Spn42Dd (Serpin 42Dd) [DRSC05024]: 1.46e5
side-III (sidestep III) [DRSC12155]: 64057
side-III (sidestep III) [DRSC12263]: 38347
side-III (sidestep III) [DRSC12264]: 64363
Ufd4 (Ubiquitin fusion-degradation 4-like) [DRSC02871]: 71757
Sf3b2 (Splicing factor 3b subunit 2) [DRSC00619]: 25060
drl (derailed) [DRSC03523]: 64490
